In patent US20120047600A1, “CAFFEOYL COA REDUCTASE” (priority 2010, published 2012):
Some results were stated once for a whole list of compounds, not compound by compound.

Chains of the proteins cited; added tags and fusions are not shown. Lines headed by an entry give the natural chain unless they say otherwise; changes in a name come on top.
UniProt G7JEE5: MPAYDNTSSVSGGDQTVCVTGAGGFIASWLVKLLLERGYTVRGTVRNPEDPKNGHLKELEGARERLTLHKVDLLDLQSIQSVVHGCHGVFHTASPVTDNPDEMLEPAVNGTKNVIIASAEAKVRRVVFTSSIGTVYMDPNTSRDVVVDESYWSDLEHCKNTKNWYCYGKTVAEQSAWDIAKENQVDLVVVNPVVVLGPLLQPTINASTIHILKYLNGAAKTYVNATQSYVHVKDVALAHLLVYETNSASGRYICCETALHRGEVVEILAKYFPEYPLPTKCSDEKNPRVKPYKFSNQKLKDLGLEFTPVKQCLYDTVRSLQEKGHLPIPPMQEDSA

Target: Medicago CCR2 (Medicago truncatula, UniProt G7JEE5)
Test: CCR enzyme activity assay with purified recombinant Medicago CCR2 expressed in E. coli
Assay type: biochemical, M. truncatula
Conditions: positive cooperativity, Hill plots FIG. 5E,F
Description: To assess the potential of Medicago CCRs to produce caffeoyl aldehyde, CCR1 and CCR2 were expressed in E. coli and assayed the purified recombinant enzymes with varying concentrations of each of the four potential substrates, 4-coumaroyl-, caffeoyl-, feruloyl- and sinapoyl-CoAs. Briefly, the coding regions of CCR1 and CCR2 were amplified from the original cDNA clones with introduction of NheI enzyme sites before the ATG start codons, a BamHI site after the CCR1 stop codon, and an XhoI site after the CCR2 stop codon. The primers EpCCR1F and EpCCR1R (see Table 3 below) were used for amplification of CCR1, and EpCCR2F and EpCCR2R were used for amplification of CCR2. […]
For CCR enzyme activity assays purified CCR protein (2.5 μg) was mixed with assay buffer (100 mM phosphate pH 6.25, 10 mM 2-mercaptoethanol, 0.2 mM NADPH and cinnamoyl CoA substrates at the indicated concentration) in a final volume of 500 μl. […] Compounds were identified by comparing their UV spectra and retention times with authentic standards of hydroxycinnamoyl aldehydes, and quantified by means of standard curves with correction for recovery of internal standards. Protein concentrations were determined using Bradford reagent (Bio-Rad). For kinetic analysis at various substrate concentrations, enzyme velocity curves were analyzed using Sigmaplot 10 software (Systat Software Inc.).

| SMILES | Hill coefficient |
| --- | --- |
| CC(C)(COP(=O)(O)OP(=O)(O)OC[C@H]1O[C@@H](n2cnc3c(N)ncnc32)[C@H](O)[C@@H]1OP(=O)(O)O)[C@@H](O)C(=O)NCCC(=O)NCCSC(=O)/C=C/c1ccc(O)cc1 [Coumaroyl CoA] | 1.9-2.0 |
| CC(C)(COP(=O)(O)OP(=O)(O)OC[C@H]1O[C@@H](n2cnc3c(N)ncnc32)[C@H](O)[C@@H]1OP(=O)(O)O)[C@@H](O)C(=O)NCCC(=O)NCCSC(=O)/C=C/c1ccc(O)c(O)c1 [Caffeoyl CoA] | 1.9-2.0 |
